# Library screen at single concentrations

Chains of the proteins cited; added tags and fusions are not shown. Residues count along the entry.
UniProt I6X8D2, whole entry: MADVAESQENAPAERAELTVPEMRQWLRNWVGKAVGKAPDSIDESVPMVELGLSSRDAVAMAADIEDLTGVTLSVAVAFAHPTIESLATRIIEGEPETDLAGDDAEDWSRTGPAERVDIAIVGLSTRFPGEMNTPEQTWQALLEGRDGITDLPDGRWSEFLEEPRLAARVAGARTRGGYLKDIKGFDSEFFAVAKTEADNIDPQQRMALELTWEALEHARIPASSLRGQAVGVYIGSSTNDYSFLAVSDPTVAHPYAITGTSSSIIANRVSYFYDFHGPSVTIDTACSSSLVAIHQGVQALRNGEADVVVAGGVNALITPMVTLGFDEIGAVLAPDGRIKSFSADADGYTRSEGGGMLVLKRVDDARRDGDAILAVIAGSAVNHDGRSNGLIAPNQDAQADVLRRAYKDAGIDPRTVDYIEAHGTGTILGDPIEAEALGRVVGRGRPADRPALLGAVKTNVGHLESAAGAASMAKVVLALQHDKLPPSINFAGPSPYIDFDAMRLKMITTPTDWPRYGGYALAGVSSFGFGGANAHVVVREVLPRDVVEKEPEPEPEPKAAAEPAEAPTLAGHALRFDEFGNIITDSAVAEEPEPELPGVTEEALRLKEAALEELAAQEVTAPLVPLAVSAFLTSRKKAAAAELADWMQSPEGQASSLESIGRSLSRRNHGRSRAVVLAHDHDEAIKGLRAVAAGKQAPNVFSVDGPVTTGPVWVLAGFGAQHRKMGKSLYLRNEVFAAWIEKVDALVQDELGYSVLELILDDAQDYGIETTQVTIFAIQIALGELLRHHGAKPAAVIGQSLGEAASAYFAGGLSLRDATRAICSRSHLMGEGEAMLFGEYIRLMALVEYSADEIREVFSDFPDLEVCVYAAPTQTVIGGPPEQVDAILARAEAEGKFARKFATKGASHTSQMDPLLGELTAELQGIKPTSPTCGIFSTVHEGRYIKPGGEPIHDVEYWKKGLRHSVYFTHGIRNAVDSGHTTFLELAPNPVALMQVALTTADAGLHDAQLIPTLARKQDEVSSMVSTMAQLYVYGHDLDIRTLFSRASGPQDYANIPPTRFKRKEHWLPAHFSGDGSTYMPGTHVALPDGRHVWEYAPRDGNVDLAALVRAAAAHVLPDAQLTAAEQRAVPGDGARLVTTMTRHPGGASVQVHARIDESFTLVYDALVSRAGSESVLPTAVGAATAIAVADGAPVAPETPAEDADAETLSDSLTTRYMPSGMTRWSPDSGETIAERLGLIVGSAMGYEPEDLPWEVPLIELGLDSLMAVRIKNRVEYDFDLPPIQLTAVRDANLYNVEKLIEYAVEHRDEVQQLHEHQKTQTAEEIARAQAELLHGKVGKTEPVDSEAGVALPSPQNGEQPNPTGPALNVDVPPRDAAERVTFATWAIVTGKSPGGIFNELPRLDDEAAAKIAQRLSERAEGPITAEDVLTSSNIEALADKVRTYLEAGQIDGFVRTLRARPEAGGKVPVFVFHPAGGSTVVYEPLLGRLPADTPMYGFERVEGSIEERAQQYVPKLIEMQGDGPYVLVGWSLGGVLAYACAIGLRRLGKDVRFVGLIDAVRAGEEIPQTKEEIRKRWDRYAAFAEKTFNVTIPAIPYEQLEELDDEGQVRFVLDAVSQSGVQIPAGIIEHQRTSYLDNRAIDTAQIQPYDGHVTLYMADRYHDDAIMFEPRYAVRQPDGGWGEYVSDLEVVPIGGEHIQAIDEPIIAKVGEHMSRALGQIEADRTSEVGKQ
UniProt A4I591, 1-473: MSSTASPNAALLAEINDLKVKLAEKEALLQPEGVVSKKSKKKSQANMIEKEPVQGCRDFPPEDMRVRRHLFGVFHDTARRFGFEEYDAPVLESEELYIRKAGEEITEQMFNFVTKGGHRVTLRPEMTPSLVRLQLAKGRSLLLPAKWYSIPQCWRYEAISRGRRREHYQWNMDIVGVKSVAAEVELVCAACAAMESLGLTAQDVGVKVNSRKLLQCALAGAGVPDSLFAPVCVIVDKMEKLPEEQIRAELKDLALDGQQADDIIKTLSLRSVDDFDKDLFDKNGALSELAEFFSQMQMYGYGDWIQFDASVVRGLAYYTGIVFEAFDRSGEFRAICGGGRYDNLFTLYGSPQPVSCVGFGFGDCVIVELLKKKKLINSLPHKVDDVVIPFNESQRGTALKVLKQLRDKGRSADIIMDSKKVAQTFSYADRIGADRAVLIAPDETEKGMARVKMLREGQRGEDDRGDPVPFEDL

Each number is a percent effect as filed. How 0% and 100% were set is not recorded. Most values in the screen are low, and negative values occur. Compounds were drawn at random from those tested, without regard to their results.

A: 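Enzyme assay of the thioesterase domain of polyketide synthase 13; the read-out is not stated. Target: Polyketide synthase Pks13, Mycobacterium tuberculosis (UniProt I6X8D2). Concentration: 30 µM. Higher reads as stronger inhibition (inferred from which compounds were picked for retests). About 67,000 compounds were tested under these conditions; 0.46% (about 300) showed 50% or more at least once.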
B: 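Enzyme assay of histidyl-tRNA synthetase; the read-out is not stated. Target: Histidine-tRNA ligase, Leishmania infantum (UniProt A4I591). Compounds at 30 µM. Direction is inferred from retests: higher values go with stronger inhibition. The assay is labelled LdHisRS but filed under L. infantum. Of about 69,000 compounds tested this way, about 410 (0.6%) reached 50% or more in at least one test.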

{"compound": "NC(=O)CCSCc1ccc(Br)c(F)c1", "A": -0.7383, "B": 6.452}
{"compound": "CC(C)Nc1ncc(-c2ccncc2)c([C@@H]2CCCO2)n1", "A": 0.9839, "B": 8.511}
{"compound": "CC(=O)NC(C(=O)N1CCn2cncc2C1)C(C)C", "stereo": "stereo not shown", "A": -22.31, "B": 14.67}
{"compound": "COc1ncccc1C(=O)NCC(C)Oc1cccnc1", "stereo": "stereo not shown", "A": -13.31, "B": 21.15}
{"compound": "O=C(Nc1cccc2c1CCCC2)c1cccc(CN2CC[C@H](O)C2)c1", "A": -10.74, "B": 17.5}
{"compound": "O=C(c1cnccn1)N1CCCC2(CCCN2Cc2cccnc2)C1", "stereo": "stereo not shown", "A": -12.92, "B": 7.895}
{"compound": "Cc1ccc(C(=O)NCC(O)c2cnn(C)c2)c(Br)c1", "stereo": "stereo not shown", "A": -5.39, "B": 8.696}
{"compound": "CS(=O)(=O)NCCN1CCCC1c1ccc(Cl)cc1", "stereo": "stereo not shown", "A": -2.856, "B": 6.78}
{"compound": "Cc1ccc(OCCNC(=O)C(C)n2cncn2)cc1", "stereo": "stereo not shown", "A": -19.17, "B": -19.1}
{"compound": "Cc1nc(CN(C)CC(c2cccs2)N2CCOCC2)no1", "stereo": "stereo not shown", "A": -1.396, "B": 16.36}
{"compound": "Cc1occc1C(=O)N1C[C@@H]2CN(S(C)(=O)=O)CCO[C@@H]2C1", "A": 2.079, "B": 1.754}
{"compound": "Cc1noc(C)c1CCC(=O)N1CCCCC1CNS(C)(=O)=O", "stereo": "stereo not shown", "A": -0.4247, "B": 25.64}
{"compound": "CCCn1[nH]cc/c1=N\\C(=O)CN1CCOC(Cn2cc(C)cn2)C1", "stereo": "stereo not shown", "A": -20.07, "B": 20.27}
{"compound": "CN(CCc1ccccn1)C(=O)Nc1cccnc1N1CCCC1", "A": -7.722, "B": 21.43}
{"compound": "COC(=O)N1CCc2ccc(NC(=O)c3cn(C)nn3)cc2C1", "A": -4.379, "B": 12.62}
{"compound": "CCN(CC)CCCN1CCN(c2nc(C)cnc2C)CC1", "A": -24.43, "B": 17.14}
{"compound": "CCOC(=O)CC(C)Nc1nc(C(C)(C)C)nc2c1cnn2C", "stereo": "stereo not shown", "A": -19.44, "B": -15.05}
{"compound": "COc1ccc(-c2cccc(-c3ccn(CCN(C)C)n3)c2)nn1", "A": 12, "B": 0.8333}
{"compound": "COc1cc(NCc2c(C)noc2C)c(C(=O)N(C)C)cc1OC", "A": -9.998, "B": 12.5}
{"compound": "CC(C)c1nc(Cn2cncn2)n(-c2ccccn2)n1", "A": -8.191, "B": 11.48}
{"compound": "CC(C)(CNC(=O)Nc1nccs1)N1CCOCC1", "A": -2.399, "B": 10.99}
{"compound": "O=C(CNC(=O)c1ccoc1)NC(c1ccc(F)cc1)C(F)(F)F", "stereo": "stereo not shown", "A": -17.33, "B": 8}
{"compound": "O=C(Nc1ccc(F)cc1)C1CCN(Cc2noc(C3CC3)n2)CC1", "A": -29.6, "B": 19.48}
{"compound": "CC(C)c1cc(NC(=O)CN2CCNC(=O)C2)on1", "A": -2.974, "B": 12.5}
{"compound": "CCC(C)Oc1ccc(CNCCNS(C)(=O)=O)cc1Cl", "stereo": "stereo not shown", "A": -4.454, "B": 17.65}
{"compound": "Cc1ccnc(NCc2cn3c(C)csc3n2)n1", "A": -42.18, "B": 33.73}
{"compound": "CCn1c(C)nnc1CN(C)C1CCN(Cc2c(C)noc2C)C1", "stereo": "stereo not shown", "A": -11.88, "B": 16.39}
{"compound": "CN(Cc1cnccn1)C(=O)c1ccc(CSc2nnc[nH]2)o1", "A": -46.07, "B": 2.5}
{"compound": "NC(=O)c1c(SCCN2CCOCC2)sc2c(O)cc(=O)[nH]c12", "A": 23.09, "B": 2.5}
{"compound": "NC(=O)c1ccnc(N2CCCC(CO)(Cc3ccc(F)cc3)C2)c1", "stereo": "stereo not shown", "A": -21.91, "B": 15}
{"compound": "c1ccc(OCCN2CCCC(c3noc(C4CC4)n3)C2)cc1", "stereo": "stereo not shown", "A": -9.416, "B": 4.854}
{"compound": "Cc1noc(C(C)N2CCN(c3ncnc4sccc34)CC2)n1", "stereo": "stereo not shown", "A": -9.029, "B": 8.264}
{"compound": "F[C@@H]1CN(C2CCC2)C[C@@H]1OCc1nc2ncccc2[nH]1", "A": 31.13, "B": -4.054}
{"compound": "Cc1cc(NC(=O)CN2CCn3c(nnc3C3CC3)C2)no1", "A": -17.04, "B": 6.612}
{"compound": "N#Cc1cccnc1NCCNC(=O)N1CCCC(N2CCCC2)C1", "stereo": "stereo not shown", "A": 17.59, "B": 20.55}
{"compound": "CN1CCOC(CNCCOc2ccc(C#N)cc2)C1", "stereo": "stereo not shown", "A": 0.7899, "B": 7.143}
{"compound": "CN(Cc1ccc(F)cc1)[C@@H]1CN(C(=O)c2cccs2)C[C@H]1O", "A": -13.76, "B": 17.14}

3 of the entries, repeated:

Compound,A,B
CC(C)Nc1ncc(-c2ccncc2)c([C@@H]2CCCO2)n1,0.9839,8.511
COc1ccc(-c2cccc(-c3ccn(CCN(C)C)n3)c2)nn1,12,0.8333
O=C(Nc1cccc2c1CCCC2)c1cccc(CN2CC[C@H](O)C2)c1,-10.74,17.5

Source: ChEMBL document CHEMBL3988442, “University of Dundee, Small-Polar-MMV Screening Library” (2021).